Experimental data taken from patent US20090226429A1 (Human Genome Sciences, published 2009).
Numbering of substitutions follows the chain as printed. Results are given in words; binding and its absence hold for the method and conditions named. Some results given as binding are weak or reduced against the parent protein; the word gives no strength. For part of these data: Tags and fused reporters may be left off the sequences shown.

T1: TR4 expressed on cells (human) (UniProt O00220)
T1 sequence: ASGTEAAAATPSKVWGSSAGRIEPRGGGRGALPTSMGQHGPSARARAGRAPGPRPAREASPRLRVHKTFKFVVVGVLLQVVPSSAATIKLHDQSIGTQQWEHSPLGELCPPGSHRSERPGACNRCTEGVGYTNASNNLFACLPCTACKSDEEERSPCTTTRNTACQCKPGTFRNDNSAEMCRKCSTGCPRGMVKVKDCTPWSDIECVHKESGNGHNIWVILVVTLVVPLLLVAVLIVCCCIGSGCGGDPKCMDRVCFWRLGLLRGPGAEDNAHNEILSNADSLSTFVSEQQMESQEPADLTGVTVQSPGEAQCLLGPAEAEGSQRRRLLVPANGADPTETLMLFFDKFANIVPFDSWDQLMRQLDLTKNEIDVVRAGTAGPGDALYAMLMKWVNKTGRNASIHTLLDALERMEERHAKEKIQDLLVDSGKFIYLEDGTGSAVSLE

T2: TR4 fusion protein (human) (UniProt O00220)
T2 sequence: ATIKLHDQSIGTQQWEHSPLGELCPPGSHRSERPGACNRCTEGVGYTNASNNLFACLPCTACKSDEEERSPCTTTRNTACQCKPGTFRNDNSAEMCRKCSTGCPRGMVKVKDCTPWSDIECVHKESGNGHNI

B1: IgG1 antibody comprising the VH and VL domains of the T1014F08 scFv (antibody, V domains shown)
VH: EVQLVQSGAEVKKPGASVKLSCRVSGDTFTAYFIHWVRQAPGQGPEWMGWFNPISGTAGSAARFRGRVAMTRDTSISTAYMELNRLTFDDTAVYYCARQHRGNTFDPWGKGTLVTVSS
VL: LPVLTQPPSASGSPGQSVTISCTGTSSDVGGYKYVSWYQQHPGKAPKLMIYEVSMRPSGVPDRFSGSKSGNTASLTVSGLQAEDEADYYCASYAGSNNWVFGGGTKLTVLG
B2: scFv T1014G03 (scFv)
scFv: EVQLVQSGAEVKMPGASVKLSCRVSGDTFTAYFIHWVRQAPGQGLEWMGWFNPISGTAGSAEKFRGRVAMTRDTSISTAYMELNRLTFDDTAVYYCARQHRGNTFDPWGQGTLVTVSSGGGGSGGGGSGGGGSAQSALTQPASVSGSPGQSITISCTGTSSDIGAYKYVSWYQQHPGKAPKLVIYEVSNRPSGVSSRFSGSKSGQTASLTISGLQADDEADYYCNSYQGYNTWVFGGGTKVTVLG
B3: scFv T1014F08 (scFv)
scFv: EVQLVQSGAEVKKPGASVKLSCRVSGDTFTAYFIHWVRQAPGQGPEWMGWFNPISGTAGSAARFRGRVAMTRDTSISTAYMELNRLTFDDTAVYYCARQHRGNTFDPWGKGTLVTVSSGGGGSGGGGSGGGGSALPVLTQPPSASGSPGQSVTISCTGTSSDVGGYKYVSWYQQHPGKAPKLMIYEVSMRPSGVPDRFSGSKSGNTASLTVSGLQAEDEADYYCASYAGSNNWVFGGGTKLTVLG
B4: scFv T1014G04 (scFv)
scFv: EVQLVQSGADVKRPGASVKVSCKISGDSFTAYFIHWVRQAPGQGLEWMGWFNPDSGTADSAQKFHGRVTMTRDTSSSTAFLELSRLRSDDTAVYYCVRQHRGNTFAPWGRGTLVTVSSGGGGSGGGGSGGGGSAQPVLTQPPSASGSPGQSVTISCTGTSSDVGSYEYVSWYQQHPGKAPRLMISEVNKRPSGVPNRFSGSKSGNTASLTVSGLQADDEADYYCSSYAGSNNWVFGGGTKVTVLG
B5: scFv T1014A04 (scFv)
scFv: EVQLVQSGADVKRPGASVKVSCKISGDSFNAYFIHWVRQAPGQGLEWMGWFNPDSGTADSAQKFHGRVTMTRDTSSSTAFLELSRLRSDDTAVYYCVRQHRGNTFAPWGRGTMVTVSSGGGGSGGGGSGGGGSAQSVLTQPPSASGSPGQSVTISCTGTTSDVGGYNYVSWYQQHPGKAPKLMIYGVNQRPSGVPDRFSGSKSGNTASLTVSGLQAEDEADYYCSSYAGSNNWVFGGGTKLTVLG
B6: scFv T1014B11 (scFv)
scFv: EVQLVQSGAEVKKPGASVKVSCKISGDSFTAYFIHWLRQAPGEGLEWMGWFNPISGTAGSPQKFHGRVAMTRDTSISTAYMELTRLASDDTAIYYCARQHHSNTFDPWGQGTLVTVSSGGGGSGGGGSGGGGSAQSALTQPASVSGSPGQSITISCTGTNSDVGGYNYVSWYQQHPGKAPKLMIYEVNNRPSGVSNRFSGSKSGNTASLTISGLQADDEADYYCSSYTTSNTWVFGGGTKLTVLG
B7: scFv T1014A12 (scFv)
scFv: EVQLVQSGADVKRPGASVKVSCKISGDSFTAYFIHWVRQAPGQGLEWMGWFNPDSGTADSAQKFHGRVTMTRDTSSSTAFLELSRLRSDDTAVYYCVRQHRGNTFAPWGRGTMVTVSSGGGGSGGGGSGGGGSAQSALTQPASVSGPPGQSITISCTGSSSDVGGYKYVSWYQQHPGKAPKLIIHDVSRRPSEVSSRFSGSKSGNTASLTISGLQAEDEAEYYCSSYSSTNSWVFGGGTKVTVLG
B8: scFv T1014A02 (scFv)
scFv: QVQLQESGPGLVKPSETLSLTCTVSGGSISDYYWSWVRQSPGKGLEWIGSIDYAGSTNYNPSLKSRVTMTIDKSKKQFPLKIDSVTAADTAMYYCARQLGRISDYWGQGTLVTVSSGGGGSGGGGSGGGGSALSYVLTQPPSASGTPGQRVTISCAGSSSNIGGNTVNWYQQLPATAPKLLIYSNNQRPSGVPDRFSGSKSGTSASLAISGLQSEDEADYYCATWDDSRGGWVFGGGTKLTVLG
B9: scFv T1014B01 (scFv)
scFv: QVQLVQSGAEVKKPGASVKVSCKISGDTFAAYFIHWVRQAPGQGLEWMGWFNPNSGTADSSQKFHGRVTMTRDTSISTAYMELSRLRSDDTAVYYCARQHRSNTFDPWGQGTMVTVSSGGGGSGGGGSGGGGSAQSVVTQPPSVSGSPGQSVTISCTGTSSDIGAYNYVSWFQQHPGKAPKLIISEVSKRPSGVPDRLSGSKSGNTASLTVSGLQAEDEADYYCGSYAGSNIWVFGGGTKVTVLG
B10: scFv T1015A07 (scFv)
scFv: B6 scFv with G59D, V144M, N160S, E186A, N188T, G200A, D217E, T229S, L241V

Target: T1, TR4 expressed on cells (human)
Assay: statement in Example 8; assay not named

Row | binding | Binder
1 | binds | B1

Target: T2, TR4 fusion protein (human)
Assay: specificity phage ELISA, antigen coated at 1 ug/ml

Row | binding | Binder
2 | binds | B2
3 | binds | B3
4 | binds | B4
5 | binds | B5
6 | binds | B6

Target: T2, TR4 fusion protein (human)
Assay: phage display selection on TR4

Row | binding | Binder
7 | binds | B2
8 | binds | B7
9 | binds | B3
10 | binds | B8
11 | binds | B4
12 | binds | B9
13 | binds | B5
14 | binds | B10
15 | binds | B6
